The labels stand for the following.
B1: human tRNA-Pro; a variant is named by its letters at N, in order (parent)
chain: GGCTCGTTGGTCTAGNGGTATGATTCTCGCTTAGGGTGCGAGAGGTCCCGGGTTCNNATCCCGGACGAGCCC

This is a noisy data set.

In this data set the parent is B1. Description: tRNA 3' processing efficiency (processed reads / all reads, maximum-likelihood estimate) (fraction); higher = more efficient 3' processing. The conditions noted are these: HEK293T; construct: no Pol-II promoter ((-)CMV library).
On to GACTCGTTGGTCTAGGGGTATGATTCTCGCTTAGGGTGCGAGAGGTCCCGGGATCAAGTCCCGGACGAGCCC [GAA G2A T53A A58G], for which the “tRNA 3' processing efficiency” value is 0.62.

For GGTTCGTTGGTCTAGGGGTATGATTCTCGCTTAGGGTGCGAGAGGTCCCGGGTTCAAACCCCGGACGAGCCC [GAA C3T T59C], the “tRNA 3' processing efficiency” value is 0.25.

For GGCTCGTTGGTCTAGCGGTATGATTCTCGCTTGGGGTGCGAGAGGTCCCGGGTTCAATGCCCGGACGAGCCC [CAA A33G A58T T59G], the “tRNA 3' processing efficiency” value was 0.4.

For the variant GGCTCGTTAGTCTTCGGGTATGATTCTCGCTTAGGGTGCGAGAGGTCCCGGGATCAAATCCCGGACGAGCCC [GAA G9A A14T G15C T53A], the “tRNA 3' processing efficiency” value is 0.62.

With GGCTCATTGGTCTAGAGGTATGATTCTCGCTTAGGGTGCGAGAGGTCCCGGGTTCAAAGCCCAGACGAGCCC [AAA G6A T59G G63A], the “tRNA 3' processing efficiency” value was 0.25.

On to GGCTCGTTAGTCTTGGGGTATGATTCTCGCTTAGGGTGCGAGAGGTCCCGGGTTCAAGCCCCGGACGAGCCC [GAA G9A A14T A58G T59C], for which the “tRNA 3' processing efficiency” value is 0.2.

As to GGCTCGTTGGTCTAGCGGTGTGATTCTCGCTTAGGGTGCGAGAGGTCCCGGGCTCAATTCCCGGACGAGCCC [CAA A20G T53C A58T], the “tRNA 3' processing efficiency” value was 0.62.

For CTTTCGTTGGTCTAGGGGTATGATTCTCGCTTAGGGTGCGAGAGGTCCCGGGTTCAAATCCCGGACGAGCCC [GAA G1C G2T C3T], the “tRNA 3' processing efficiency” value is 0.25.

Regarding GGCTCGTTAGTCTAGAGGTTTGATTCTCGCTTAGGGTGCGAGAGGTCCCGGGTTCAAGGCCCGGACGAGCCC [AAA G9A A20T A58G T59G], the “tRNA 3' processing efficiency” value was 0.5.

Regarding GGCTCGTTGGTCTAGCGGTATGATTCTCGCTTAGGGTGCGAGAGGTCCCGGGTTGAAAACCCGGACGAGCCC [CAA C55G T59A], the “tRNA 3' processing efficiency” value is 0.29.

Regarding GGCTCGTTGGTCTAGCGGTATGATTCTCGCTTGGGGTGCGAGAGGTCCCGGGTTTAAATCCCGGACGAGCCC [CAA A33G C55T], the “tRNA 3' processing efficiency” value was 0.2.

Turning to TGCTTGTTGGTCTAGGGGTATGATTCTCGCTTAGGGTGCGAGAGGTCCCGGGTTCAAATCCCGGACGAGCCC [GAA G1T C5T], the “tRNA 3' processing efficiency” value is 0.17.

For GGCTCGTTGGTCTAGCGGTATGATTCTCGCTTAGGGTGCGAGAGGTCCCGGGTTCAAATCCCGGACGAGGCC [CAA C70G], the “tRNA 3' processing efficiency” value is 0.25.

On to GGCTCGTTAGTCTGGCGGAATGATTCTCGCTTAGGGTGCGAGAGGTCCCGGGTTCAAGTCCCGGACGAGCCC [CAA G9A A14G T19A A58G], for which the “tRNA 3' processing efficiency” value is 0.33.

As to GGCTCGTTGGTCTAGGGGTGTGATTCTCGCTTAGGGTGCGAGAGGTCCCGGGATCAAGACCCGGACGAGCCC [GAA A20G T53A A58G T59A], the “tRNA 3' processing efficiency” value was 0.25.

With GGCTCGTTGGTCTAGAGGTATGATTCTCGCTTGGGGTGCGAGAGGTCCCGGGTTCAAATCCCGGACGAGCCC [AAA A33G], the “tRNA 3' processing efficiency” value is 0.33.

For the variant GGCTCGTTGGTCTAGAGGTGTGATTCTCGCTTAGGGTGCGAGAGGTCCCGGGTTCAATACCCGGACGAGCCC [AAA A20G A58T T59A], the “tRNA 3' processing efficiency” value was 0.5.

With GGCTCGTTGGTCTAGAGGTTTGATTCTCGCTTAGGGTGCGAGAGGTCCCGTGTTCAAAGCCCGGACGAGCCC [AAA A20T G51T T59G], the “tRNA 3' processing efficiency” value is 0.38.

Regarding GGCTCGTTGGTCTAGGGGTATGATTCTCGCTTAGGGTGTGAGAGGTCCCGGGTTCAAACCCCGGACGAGCCC [GAA C39T T59C], the “tRNA 3' processing efficiency” value is 0.25.

As for GGTGCTTTTGTCTAGGGGTTTGATTCTCGCTTAGGGTGCGAGAGGTCCCGGGTTCAAATCCCGGACGAGCCC [GAA C3T T4G G6T G9T A20T], the “tRNA 3' processing efficiency” value is 0.5.

In the case of GGCTCGTTAGTCTAGGGGTATGATTCTCGCTTGGGGTGCGAGAGGTCCCGGGTTCAAATCCCGGACGAGCCC [GAA G9A A33G], the “tRNA 3' processing efficiency” value was 0.67.

With GGCTCGTTGGTCTAGGGGTGTGATTCTCGCTTAGGGTGCGAGAGGTCCCGGGGTCAAGACCCGGACGAGCCC [GAA A20G T53G A58G T59A], the “tRNA 3' processing efficiency” value is 0.25.

As to GGCTCGTTGGTCTAGTGGTATGATTCTCGCTTAGGGTGCGAGAGGTCCCGGGTTTAAGGCCCGGACGAGCCC [TAA C55T A58G T59G], the “tRNA 3' processing efficiency” value was 0.5.

In the case of GGCTCGTTGGTCTAGCGGTGTGATTCTCGCTTAGAGTGCGAGAGGTCCCGGGTACAAATCCCGGACGAGCCC [CAA A20G G35A T54A], the “tRNA 3' processing efficiency” value was 0.13.

Consider GGCTCGTTGGTCTAGTGGTATGATTCTCGCTTGGGGTGCGAGAGGTCCCGGGTTCAAAACCCGGACGAGCCC [TAA A33G T59A], for which the “tRNA 3' processing efficiency” value is 0.29.

As to GGCTCGTTGGTCTAGTGGTATGATTCTCGCTTGGGGTGCGAGAGGTCCCGGGTTCAAACCCCGGACGAGCCC [TAA A33G T59C], the “tRNA 3' processing efficiency” value was 0.2.

On to GGCTCGTTGGTCTAGGGGTTTGATTCTCGCTTAGGGTGCGAGAGGTCCCGAGTTCAAATCCCGGACGAGCCC [GAA A20T G51A], for which the “tRNA 3' processing efficiency” value was 0.08.

For GGCTCGTTGGTCTAGAGGTATGATTCTCGCTTGGGGTGCGAGAGGTCCCGGGTTTAAATCCCGGACGAGCCC [AAA A33G C55T], the “tRNA 3' processing efficiency” value is 0.2.

As to GGCTCGTTGGTCTAGAGGTTTGATTCTCGCTTAGGGTGCGAGAGGTCCCGGGTTTAAGACCCGGACGAGCCC [AAA A20T C55T A58G T59A], the “tRNA 3' processing efficiency” value was 0.4.

On to GGCTCGTTGGTCTAGCGGTATGATTCTCGCTTTGGGTGCGAGAGGTCCCGGGTTTAAGTCCCGGACGAGCCC [CAA A33T C55T A58G], for which the “tRNA 3' processing efficiency” value was 0.2.

Take GGCTCGTTGGTCTAGTGGTTTGATTCTCGCTTAGGGTGCGAGAGGTCCCGGGCTCAAAGCCCGGACGAGCCC [TAA A20T T53C T59G]: the “tRNA 3' processing efficiency” value was 0.25.

On to GGCTCGTTGGTCTAGTGGTTTGATTCTCGCTTAGGGTGCGAGAGGTCCCGGGTTCAACACCCGGACGAGCCC [TAA A20T A58C T59A], for which the “tRNA 3' processing efficiency” value is 0.18.

In the case of GGCTCGTTAGTCTAGGGGTATGATTCTCGCTTGGGGTGCGAGAGGTCCCGGGTTCAATTCCCGGACGAGCCC [GAA G9A A33G A58T], the “tRNA 3' processing efficiency” value is 0.34.

For GGCTCGTTAGTCTGGGGGAATGATTCTCGCTTAGGGTGCGAGAGGTCCCGGGTACAAACCCCGGACGAGCCC [GAA G9A A14G T19A T54A T59C], the “tRNA 3' processing efficiency” value was 0.38.

For the variant GGCTCGTTGGTCTAGTGGTATGATTCTCGCTTGGGGTGCGAGAGGTCCCGGGTTCAATTCCCGGACGAGCCC [TAA A33G A58T], the “tRNA 3' processing efficiency” value was 0.6.

On to GGCTCGTTAGTCTGGGGGAATGATTCTCGCTTAGGGTGCGAGAGGTCCCGGGTTCAAATCCCGGACGAGTCC [GAA G9A A14G T19A C70T], for which the “tRNA 3' processing efficiency” value is 0.5.

For GGCTCGTTGGTCTAGGGGTATGATTCTCGCTTAGGGTGCGAGAGGTCCCGGGTTTAAATCCCGAACGAGCCC [GAA C55T G64A], the “tRNA 3' processing efficiency” value is 0.25.

On to GGCTCGTTGGTCTAGGGGTTTGATTCTCGCTTAGGGTGCGAGAGGTCCCGGGATCAATCCCCGGACGAGCCC [GAA A20T T53A A58T T59C], for which the “tRNA 3' processing efficiency” value was 0.29.

The record behind these values is the supplement of paper PMC6445147.
